One experiment addresses KLF4 amino acids 201-479. The experiment is described as follows: co-IP; HEK293T cells; IP lysis buffer (20 mM Tris-HCl pH 7.4, 150 mM NaCl, 1 mM EDTA, 1% NP-40), protein A/G agarose beads with specified antibodies at 4 °C overnight, western blot; whole proteins and truncations. On the technique in general: In western blotting, separated proteins are transferred to a membrane and probed.

For experiment [1], the target named is KLF4 expressed in HEK293T cells (co-IP). The description is as above.
The target in experiment [2] is KLF4 of the GST pull-down (HEK293T). The experiment is described as follows: pull-down; GST pull-down; bait and prey from HEK293T lysates (50 mM Na2HPO4 pH 8.0, 300 mM NaCl, 1% Triton X-100); bait held on GST beads and washed, prey supernatant (pre-cleared on GST beads) added at 4 °C overnight; western blot; only the target purified.

These are yes or no findings as the source states them, for the method shown. In cells and extracts the contact can be indirect. Binding can be weak; no strength is given. For some of these results: Sequences can lack the tags named with a protein.

B1: TRIM56 expressed in HEK293T cells (co-IP) (protein, UniProt Q9BRZ2 1-755)
chain: MVSHGSSPSLLEALSSDFLACKICLEQLRAPKTLPCLHTYCQDCLAQLADGGRVRCPECRETVPVPPEGVASFKTNFFVNGLLDLVKARACGDLRAGKPACALCPLVGGTSTGGPATARCLDCADDLCQACADGHRCTRQTHTHRVVDLVGYRAGWYDEEARERQAAQCPQHPGEALRFLCQPCSQLLCRECRLDPHLDHPCLPLAEAVRARRPGLEGLLAGVDNNLVELEAARRVEKEALARLREQAARVGTQVEEAAEGVLRALLAQKQEVLGQLRAHVEAAEEAARERLAELEGREQVARAAAAFARRVLSLGREAEILSLEGAIAQRLRQLQGCPWAPGPAPCLLPQLELHPGLLDKNCHLLRLSFEEQQPQKDGGKDGAGTQGGEESQSRREDEPKTERQGGVQPQAGDGAQTPKEEKAQTTREEGAQTLEEDRAQTPHEDGGPQPHRGGRPNKKKKFKGRLKSISREPSPALGPNLDGSGLLPRPIFYCSFPTRMPGDKRSPRITGLCPFGPREILVADEQNRALKRFSLNGDYKGTVPVPEGCSPCSVAALQSAVAFSASARLYLINPNGEVQWRRALSLSQASHAVAALPSGDRVAVSVAGHVEVYNMEGSLATRFIPGGKASRGLRALVFLTTSPQGHFVGSDWQQNSVVICDGLGQVVGEYKGPGLHGCQPGSVSVDKKGYIFLTLREVNKVVILDPKGSLLGDFLTAYHGLEKPRVTTMVDGRYLVVSLSNGTIHIFRVRSPDS
B1: the binding entry (with KLF4 amino acids 201-479; in experiment [1]) was “binds” in each case.

B2: TRIM56 of the GST pull-down (HEK293T) (protein, UniProt Q9BRZ2 1-755)
chain: B1 chain
With B2, the binding entry in experiment [2] is “binds”.

B3: TRIM56 amino acids 206-520 (domain or fragment, UniProt Q9BRZ2 206-520)
chain: AEAVRARRPGLEGLLAGVDNNLVELEAARRVEKEALARLREQAARVGTQVEEAAEGVLRALLAQKQEVLGQLRAHVEAAEEAARERLAELEGREQVARAAAAFARRVLSLGREAEILSLEGAIAQRLRQLQGCPWAPGPAPCLLPQLELHPGLLDKNCHLLRLSFEEQQPQKDGGKDGAGTQGGEESQSRREDEPKTERQGGVQPQAGDGAQTPKEEKAQTTREEGAQTLEEDRAQTPHEDGGPQPHRGGRPNKKKKFKGRLKSISREPSPALGPNLDGSGLLPRPIFYCSFPTRMPGDKRSPRITGLCPFGPRE
With B3, the binding result in experiment [1] was “binds”.

The record behind these values is PMC12884795.
